Laboratory results reported in patent US20120258938A1, “Enzymatic Production or Chemical Synthesis and Uses for 5,7-Dienes and UVB Conversion Products Thereof” (priority 2008, published 2012).

Substrate: C=C1CC[C@H](O)C/C1=C/C=C1\CCC[C@]2(C)[C@@H]([C@H](C)CCCC(C)C)CC[C@@H]12
Assay: not read
Details: other: substrate in 0.45% cyclodextrin; pH 7.4; 37.0 °C

B1: cytochrome P450scc (Bos taurus) (protein)
chain: ISTKTPRPYSEIPSPGDNGWLNLYHFWREKGSQRIHFRHIENFQKYGPIYREKLGNLESVYIIHPEDVAHLFKFEGSYPERYDIPPWLAYHRYYQKPIGVLFKKSGTWKKDRVVLNTEVMAPEAIKNFIPLLNPVSQDFVSLLHKRIKQQGSGKFVGDIKEDLFHFAFESITNVMFGERLGMLEETVNPEAQKFIDAVYKMFHTSVPLLNVPPELYRLFRTKTWRDHVAAWDTIFNKAEKYTEIFYQDLRRKTEFRNYPGILYCLLKSEKMLLEDVKANITEMLAGGVNTTSMTLQWHLYEMARSLNVQEMLREEVLNARRQAEGDISKMLQMVPLLKASIKETLRLHPISVTLQRYPESDLVLQDYLIPAKTLVQVAIYAMGRDPAFFSSPDKFDPTRWLSKDKDLIHFRNLGFGWGVRQCVGRRIAELEMTLFLIHILENFKVEMQHIGDVDTIFNLILTPDKPIFLVFRPFNQDPPQA
Km: 30 ± 2 µM
